Measurements taken from patent US9326520B2, “Pest repellent comprising geranylacetone” (The University Court of the University of Aberdeen, priority 2006, dated 2016).
For at least one compound, name, drawing or mass did not settle the structure.

Test system: C. impunctatus midges
Assay: Field trial of repellency (WHO protocol), compounds on stockings worn on forearms of volunteers
Format: in vivo, Culicoides impunctatus
Conditions: DEET 40% vs 1%
Description: FIG. 6. Repellency of EAG-active human-derived compounds applied to the forearms of volunteers and tested on Culicoides impuctatus midges in the field. a) over 1 minute and b) over 5 minutes.
A field trial was made in the Ormsary estate, Argyllshire, during the summer 2005 in a region with an extremely high natural population of C. impunctatus. […] Compounds were applied to (nylon) stockings and worn on the forearms of volunteers and were tested at three concentrations in ethanol (1%, 0.01% and 0.0001%). All compounds and mixtures were compared against the WHO approved repellent diethyltoluamide (DEET) (1% and 40%).

SMILES: CCN(CC)C(=O)c1cccc(C)c1 [DEET, diethyltoluamide, reference compound]
- repellency of DEET at 40% compared with DEET at 1%: not more repellent than DEET at 1%
